Measurements reported in PubChem BioAssay AID504744 (Drosophila RNAi Screening Center, 2011)
Purpose: 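Uncover factors, including feedback loops, that control dAkt activation in fly cells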 (primary screen). Cells: Drosophila Kc167 cells. Reagents: long dsRNA against Drosophila genes, 250 ng dsRNA per well of a 384-well plate. Timing: 3 days of knock-down, then overnight serum-free starvation before stimulation. Treatment: bovine insulin at 387 nM for 10 minutes after 12 h without serum. Measured: 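Per-well phospho-dAkt level from an in-cell fluorescent antibody stain, divided by a DNA-dye signal; log2 residuals turned into z-scores that take cell number into account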. Hit rule: 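Under insulin, a gene counts as a hit if the average z-score of two replicates lies above 2.5 or below -2.5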.
The deposit covers about 23,000 reagents; this is a random part of those that have a named target and a result. In the full data, 98 (0.43%) got an active call. 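Only hit calls are given; the phospho-dAkt signals, z-scores and hit direction were not deposited.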

For CG12659 [DRSC17862], what does the deposit list?
activity call: inactive

What is on record for JMJD4 (Jumonji domain containing 4) [DRSC03025]?
activity call: inactive

What is on record for mrj [DRSC22592]?
activity call: inactive

With Sirt7 (Sirtuin 7) [DRSC14294], what was measured?
activity call: inactive

With Ak3 (Adenylate kinase 3) [DRSC16075], what was measured?
activity call: inactive

How did the screen score CG3907 [DRSC04432]?
activity call: inactive

For l(2)03659 (lethal (2) 03659) [DRSC07269], how do the results read?
activity call: inactive

With l(2)03659 (lethal (2) 03659) [DRSC07638], what was measured?
activity call: inactive

With Cpr76Ba (Cuticular protein 76Ba) [DRSC11060], how do the results read?
activity call: inactive

For kz (kurz) [DRSC18786], what does the deposit list?
activity call: inactive

How did the screen score KFase (Kynurenine formamidase) [DRSC03258]?
activity call: inactive

With CG12842 (retired record) [DRSC06188], what was measured?
activity call: inactive

With CG7272 [DRSC10795], what does the deposit list?
activity call: inactive

What is on record for CG32388 [DRSC08861]?
activity call: inactive

How did the screen score Klp10A (Kinesin-like protein at 10A) [DRSC19601]?
activity call: inactive

How did the screen score CG6337 [DRSC06977]?
activity call: inactive

With CG6337 [DRSC21870], what does the deposit list?
activity call: inactive

For pns (pinstripe) [DRSC08598], how do the results read?
activity call: inactive

What is on record for CG1143 [DRSC08188]?
activity call: inactive

With CG30384 [DRSC06032], what was measured?
activity call: inactive

What did the screen give for CG5577 [DRSC10519]?
activity call: inactive

How did the screen score CG3078 [DRSC18531]?
activity call: inactive

For CG15020 [DRSC08474], what does the deposit list?
activity call: inactive
